# Results published in the supplement of paper PMC8728848.
# The other results are listed elsewhere or left out.
# B1: Protein L(B1-B4) (Finegoldia magna), Q51912 (protein)
# chain: KEETPETPETDSEEEVTIKANLIFANGSTQTAEFKGTFEKATSEAYAYADTLKKDNGEYTVDVADKGYTLNIKFAGKEKTPEEPKEEVTIKANLIYADGKTQTAEFKGTFEEATAEAYRYADALKKDNGEYTVDVADKGYTLNIKFAGKEKTPEEPKEEVTIKANLIYADGKTQTAEFKGTFEEATAEAYRYADLLAKENGKYTVDVADKGYTLNIKFAGKEKTPEEPKEEVTIKANLIYADGKTQTAEFKGTFAEATAEAYRYADLLAKENGKYTADLEDGGYTINIRFAG
# Legend:
# Assay in all cases: glycan array binding signal (z-score within array); higher = stronger binding
# Conditions in all cases: glycan notation: IUPAC condensed, linker removed
# [1] = molecular target: Gal(b1-3)GlcNAc(b1-2)Man(a1-3)[Gal(b1-3)GlcNAc(b1-2)Man(a1-6)]Man(b1-4)GlcNAc(b1-4)[Fuc(a1-6)]GlcNAc
# Outline: (§1)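 From the Consortium for Functional Glycomics database, 3228 arrays were curated, keeping only those whose protein sequence was available. Binding is given as a within-array Z-score averaged across arrays sharing a protein sequence and across linkers. Negative Z-scores can be read as non-binding.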
# [2] = molecular target: Gal(b1-3)GlcNAc(b1-2)Man(a1-3)[GlcNAc(b1-4)][Gal(b1-3)GlcNAc(b1-2)Man(a1-6)]Man(b1-4)GlcNAc(b1-4)GlcNAc
# Outline: as §1
# [3] = molecular target: Gal(b1-3)GlcNAc(b1-2)[Gal(b1-3)GlcNAc(b1-6)]Man(a1-6)[Gal(b1-3)GlcNAc(b1-2)Man(a1-3)]Man(b1-4)GlcNAc(b1-4)GlcNAc
# Outline: as §1
# [4] = molecular target: Gal(b1-3)GlcNAc(b1-3)Gal(b1-3)GlcNAc
# Outline: as §1
# [5] = molecular target: Gal(b1-3)GlcNAc(b1-3)Gal(b1-4)Glc
# Outline: as §1
# [6] = molecular target: Gal(b1-3)GlcNAc(b1-3)Gal(b1-4)GlcNAc
# Outline: as §1
# [7] = molecular target: Gal(b1-3)GlcNAc(b1-3)Gal(b1-4)GlcNAc(b1-2)Man(a1-3)[Gal(b1-3)GlcNAc(b1-3)Gal(b1-4)GlcNAc(b1-2)Man(a1-6)]Man(b1-4)GlcNAc(b1-4)GlcNAc
# Outline: as §1
# [8] = molecular target: Gal(b1-3)GlcNAc(b1-3)Gal(b1-4)GlcNAc(b1-2)[Gal(b1-3)GlcNAc(b1-3)Gal(b1-4)GlcNAc(b1-6)]Man(a1-6)[Gal(b1-3)GlcNAc(b1-3)Gal(b1-4)GlcNAc(b1-2)Man(a1-3)]Man(b1-4)GlcNAc(b1-4)[Fuc(a1-6)]GlcNAc
# Outline: as §1
# [9] = molecular target: Gal(b1-3)GlcNAc(b1-3)Gal(b1-4)GlcNAc(b1-3)Gal(b1-4)GlcNAc(b1-2)[Gal(b1-3)GlcNAc(b1-3)Gal(b1-4)GlcNAc(b1-3)Gal(b1-4)GlcNAc(b1-6)]Man(a1-6)[Gal(b1-3)GlcNAc(b1-3)Gal(b1-4)GlcNAc(b1-3)Gal(b1-4)GlcNAc(b1-2)Man(a1-3)]Man(b1-4)GlcNAc(b1-4)[Fuc(a1-6)]GlcNAc
# Outline: as §1
# [10] = molecular target: Gal(b1-3)GlcNAc(b1-3)Gal(b1-4)GlcNAc(b1-6)[Gal(b1-3)GlcNAc(b1-3)]Gal(b1-4)Glc
# Outline: as §1
# [11] = molecular target: Gal(b1-3)GlcNAc(b1-3)Gal(b1-4)[Fuc(a1-3)]GlcNAc(b1-6)[Gal(b1-3)GlcNAc(b1-3)]Gal(b1-4)Glc
# Outline: as §1
# [12] = molecular target: Gal(b1-3)GlcNAc(b1-3)GalNAc
# Outline: as §1
# [13] = molecular target: Gal(b1-3)GlcNAc(b1-6)Gal(b1-4)GlcNAc
# Outline: as §1
# [14] = molecular target: Gal(b1-3)GlcNAc(b1-6)GalNAc
# Outline: as §1
# [15] = molecular target: Gal(b1-3)GlcNAc(b1-6)[Gal(b1-3)]GalNAc
# Outline: as §1
# Gal(b1-3)GlcNAc6S = molecular target: Gal(b1-3)GlcNAc6S
# Outline: as §1
# [16] = molecular target: Gal(b1-3)[Fuc(a1-4)]GlcNAc
# Outline: as §1
# [17] = molecular target: Gal(b1-3)[Fuc(a1-4)]GlcNAc(b1-2)Man
# Outline: as §1
# [18] = molecular target: Gal(b1-3)[Fuc(a1-4)]GlcNAc(b1-2)Man(a1-3)[Gal(b1-3)[Fuc(a1-4)]GlcNAc(b1-2)Man(a1-6)]Man(b1-4)GlcNAc(b1-4)[Fuc(a1-6)]GlcNAc
# Outline: as §1
# [19] = molecular target: Gal(b1-3)[Fuc(a1-4)]GlcNAc(b1-3)Gal(b1-3)[Fuc(a1-4)]GlcNAc
# Outline: as §1
# [20] = molecular target: Gal(b1-3)[Fuc(a1-4)]GlcNAc(b1-3)Gal(b1-4)GlcNAc
# Outline: as §1
# [21] = molecular target: Gal(b1-3)[Fuc(a1-4)]GlcNAc(b1-3)Gal(b1-4)[Fuc(a1-3)]GlcNAc
# Outline: as §1
# [22] = molecular target: Gal(b1-3)[Fuc(a1-4)]GlcNAc(b1-6)GalNAc
# Outline: as §1
# [23] = molecular target: Gal(b1-3)[GlcNAc(b1-6)]GalNAc
# Outline: as §1
# [24] = molecular target: Gal(b1-3)[Neu5Ac(a2-6)]GalNAc
# Outline: as §1
# [25] = molecular target: Gal(b1-3)[Neu5Ac(a2-6)]GlcNAc(b1-4)Gal(b1-4)Glc
# Outline: as §1
# [26] = molecular target: Gal(b1-3)[Neu5Ac(b2-6)]GalNAc
# Outline: as §1
# Gal(b1-4)Gal = molecular target: Gal(b1-4)Gal
# Outline: as §1
# [27] = molecular target: Gal(b1-4)GalNAc(a1-3)[Fuc(a1-2)]Gal(b1-4)GlcNAc
# Outline: as §1
# [28] = molecular target: Gal(b1-4)GalNAc(b1-3)[Fuc(a1-2)]Gal(b1-4)GlcNAc
# Outline: as §1
# Gal(b1-4)Glc = molecular target: Gal(b1-4)Glc
# Outline: as §1
# Gal(b1-4)Glc6S = molecular target: Gal(b1-4)Glc6S
# Outline: as §1
# Gal(b1-4)GlcNAc = molecular target: Gal(b1-4)GlcNAc
# Outline: as §1
# [29] = molecular target: Gal(b1-4)GlcNAc(a1-6)Gal(b1-4)GlcNAc
# Outline: as §1
# Gal(b1-4)GlcNAc(b1-2)Man = molecular target: Gal(b1-4)GlcNAc(b1-2)Man
# Outline: as §1
# [30] = molecular target: Gal(b1-4)GlcNAc(b1-2)Man(a1-3)Man(b1-4)GlcNAc(b1-4)GlcNAc
# Outline: as §1
# [31] = molecular target: Gal(b1-4)GlcNAc(b1-2)Man(a1-3)[Gal(b1-4)GlcNAc(b1-2)Man(a1-6)]Man(b1-4)GlcNAc(b1-4)GlcNAc
# Outline: as §1
# [32] = molecular target: Gal(b1-4)GlcNAc(b1-2)Man(a1-3)[Gal(b1-4)GlcNAc(b1-2)Man(a1-6)]Man(b1-4)GlcNAc(b1-4)[Fuc(a1-6)]GlcNAc
# Outline: as §1
# [33] = molecular target: Gal(b1-4)GlcNAc(b1-2)Man(a1-3)[Gal(b1-4)GlcNAc(b1-2)Man(a1-6)][Gal(b1-4)GlcNAc(b1-4)]Man(b1-4)GlcNAc(b1-4)[Fuc(a1-6)]GlcNAc
# Outline: as §1
# [34] = molecular target: Gal(b1-4)GlcNAc(b1-2)Man(a1-3)[Gal(b1-4)GlcNAc(b1-2)Man(a1-6)][GlcNAc(b1-4)]Man(b1-4)GlcNAc(b1-4)[Fuc(a1-6)]GlcNAc
# Outline: as §1
# [35] = molecular target: Gal(b1-4)GlcNAc(b1-2)Man(a1-3)[GlcNAc(b1-2)Man(a1-6)]Man(b1-4)GlcNAc(b1-4)GlcNAc
# Outline: as §1
# [36] = molecular target: Gal(b1-4)GlcNAc(b1-2)Man(a1-3)[GlcNAc(b1-4)][Gal(b1-4)GlcNAc(b1-2)Man(a1-6)]Man(b1-4)GlcNAc(b1-4)GlcNAc
# Outline: as §1
# [37] = molecular target: Gal(b1-4)GlcNAc(b1-2)Man(a1-3)[Man(a1-6)]Man(b1-4)GlcNAc(b1-4)GlcNAc
# Outline: as §1
# [38] = molecular target: Gal(b1-4)GlcNAc(b1-2)Man(a1-6)Man(b1-4)GlcNAc(b1-4)GlcNAc
# Outline: as §1
# [39] = molecular target: Gal(b1-4)GlcNAc(b1-2)Man(a1-6)[GlcNAc(b1-2)Man(a1-3)]Man(b1-4)GlcNAc(b1-4)GlcNAc
# Outline: as §1
binder,measurement,setting,value
B1,glycan array binding signal (z-score),[1],1.11
same,glycan array binding signal (z-score),[2],1.19
same,glycan array binding signal (z-score),[3],0.177
same,glycan array binding signal (z-score),[4],-0.89
same,glycan array binding signal (z-score),[5],-1.05
same,glycan array binding signal (z-score),[6],-0.637
same,glycan array binding signal (z-score),[7],0.745
same,glycan array binding signal (z-score),[8],0.991
same,glycan array binding signal (z-score),[9],1.48
same,glycan array binding signal (z-score),[10],-0.192
same,glycan array binding signal (z-score),[11],-0.894
same,glycan array binding signal (z-score),[12],0.468
same,glycan array binding signal (z-score),[13],-0.642
same,glycan array binding signal (z-score),[14],-0.4
same,glycan array binding signal (z-score),[15],1.99
same,glycan array binding signal (z-score),Gal(b1-3)GlcNAc6S,-0.474
same,glycan array binding signal (z-score),[16],-0.678
same,glycan array binding signal (z-score),[17],1.5
same,glycan array binding signal (z-score),[18],1.84
same,glycan array binding signal (z-score),[19],0.166
same,glycan array binding signal (z-score),[20],-0.71
same,glycan array binding signal (z-score),[21],0.214
same,glycan array binding signal (z-score),[22],1.59
same,glycan array binding signal (z-score),[23],0.254
same,glycan array binding signal (z-score),[24],-0.377
same,glycan array binding signal (z-score),[25],0.368
same,glycan array binding signal (z-score),[26],-0.032
same,glycan array binding signal (z-score),Gal(b1-4)Gal,0.033
same,glycan array binding signal (z-score),[27],-0.634
same,glycan array binding signal (z-score),[28],-0.985
same,glycan array binding signal (z-score),Gal(b1-4)Glc,-0.492
same,glycan array binding signal (z-score),Gal(b1-4)Glc6S,1.07
same,glycan array binding signal (z-score),Gal(b1-4)GlcNAc,-0.792
same,glycan array binding signal (z-score),[29],-0.851
same,glycan array binding signal (z-score),Gal(b1-4)GlcNAc(b1-2)Man,0.361
same,glycan array binding signal (z-score),[30],-0.416
same,glycan array binding signal (z-score),[31],-0.396
same,glycan array binding signal (z-score),[32],0.291
same,glycan array binding signal (z-score),[33],-0.33
same,glycan array binding signal (z-score),[34],-0.633
same,glycan array binding signal (z-score),[35],-1.08
same,glycan array binding signal (z-score),[36],-0.936
same,glycan array binding signal (z-score),[37],-0.017
same,glycan array binding signal (z-score),[38],-0.772
same,glycan array binding signal (z-score),[39],-0.232

# Looked up one by one from the list above, three records:
binder,measurement,setting,value
B1,glycan array binding signal (z-score),[33],-0.33
same,glycan array binding signal (z-score),[24],-0.377
same,glycan array binding signal (z-score),Gal(b1-3)GlcNAc6S,-0.474
